Taken from: PubChem BioAssay AID743454 (Peter MacCallum Cancer Centre, 2014)
The whole screen tested about 18,000 reagents; shown is a part drawn at random. Over the whole deposit, 450 (2.5%) got an active call. 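Single biological run; no consistent viability z cut-off exists, so the class columns, not z-scores, define the calls.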 Unmarked entries are inactive. No sequences are given here.

- Test: 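Knock-downs lowering viability or raising caspase 3/7 activity in vorinostat-treated resistant cells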 (primary screen)
- Cells: human HCT116-VR colon cancer cells, selected for vorinostat resistance
- Reagent: siRNA pool against human genes, 40 nM siRNA pool
- Timing: vorinostat for 24 h, read-out about 72 h after transfection
- Treatment: vorinostat at 2.5 µM final
- Measurement: 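Cell viability by CellTiter-Fluor and caspase 3/7 activity by luminescence, each scaled to mock wells per plate, duplicates averaged, then robust z-scored over all plates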
- Reading the numbers: viability robust z-score: higher = more viable cells than screen typical; caspase robust z-score: higher = more caspase 3/7 activity than screen typical
- Rule for the call: 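Hits are knock-downs in viability class RV1/RV2 or caspase class CA1/CA2, excluding ones that killed cells in the no-drug cell-count arm; hits then retested with single siRNAs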

Target gene | viability hit class | caspase hit class | viability robust z-score | caspase robust z-score
GGN | no change | no change | 1.06 | 2.24
NFIC | no change | no change | -0.54 | 0.92
MYO1G | no change | no change | -0.62 | 1.81
GALNTL5 | no change | no change | 0.88 | -0.35
SLC19A1 | no change | no change | 1.08 | -0.98
AIDA | no change | no change | 1.14 | -0.5
SERPINB13 | no change (active) | CA2 (caspase activation) | -2.27 | 5.72
ADGRG6 | no change | no change | 1.27 | -0.31
HYCC1 | no change | no change | 1.99 | -0.79
C1QTNF9 | no change | no change | 0.22 | -0.83
NDUFV1 | no change | no change | -0.36 | -0.78
DNAJC8 | no change | no change | 0.59 | -0.26
ELAPOR1 | no change | no change | -0.12 | 0.57
ARHGAP15 | no change | no change | 1.4 | -0.5
PRSS1 | no change | no change | 0.58 | -0.63
ZSWIM9 | no change | no change | 1.46 | 1.4
GJA8 | no change | no change | -2.86 | 1.08
DEFB107A | no change | no change | 0.16 | -0.18
FLVCR1 | no change | no change | -0.18 | -0.52
ANKS6 | no change | no change | -0.38 | 0.86
TCAF2 | no change | no change | -0.23 | 2.46
PCDHGA5 | no change | no change | 0.06 | -0.9
RAB41 | no change | no change | -0.2 | -0.98
ASL | no change | no change | 1.42 | -0.48
DMBT1 | no change | no change | 0.22 | 0.74
CPNE9 | no change | no change | 1.62 | -0.86
ARL14 | RV2 (reduced viability) (active) | no change | -3.59 | -1.51
LRRC24 | no change | no change | -1.17 | 1.95
PPIH | no change | no change | 0.81 | -0.26
ARL8B | no change | no change | 0.88 | -0.5
KCTD12 | no change | no change | -3.15 | 1.31
ZSCAN18 | no change | no change | 0.32 | -0.4
MPP2 | no change | no change | -0.18 | 1.84
PAIP2 | no change | no change | -0.52 | 0.64
EDC4 | no change | no change | -1.44 | 1.1
LGMN | no change | no change | -0.2 | -0.88
CD300LG | no change | no change | 1.26 | 1.16
IL17RC | no change | no change | 1.12 | 2.15
PABPC1L2A | no change | no change | -0.12 | -0.58
PPP4R4 | RV2 (reduced viability) (active) | no change | -3.54 | 0.1
ANKRD27 | no change | no change | 1.81 | 1.44
CDH8 | no change | no change | -0.15 | -0.39
CPZ | no change | no change | -1.21 | 0.23
SETDB2 | no change | no change | 0.71 | 0.64
SUSD4 | no change | no change | -0.56 | -1.06
GKAP1 | no change | no change | 0.22 | -0.55
TSR3 | no change | no change | -0.08 | 1.82
ZNF786 | no change | no change | 0.57 | 0.03
IFT22 | no change | no change | -1.12 | -0.76
NUP42 | no change (active) | CA1 (caspase activation) | -0.07 | 5.57
PCDHGB4 | no change | no change | 0.3 | -0.99
SLC39A3 | no change | no change | -0.45 | 1.31
ASB6 | no change | no change | 1.12 | -0.19
KRTCAP2 | no change | no change | -0.15 | 0.21
LRIT2 | no change | no change | 0.8 | 1.98
DNAJA2 | RV2 (reduced viability) (active) | no change | -3.51 | 3.47
OR8G1 | no change | no change | 0.18 | 0.49
